PubChem BioAssay AID720505 – Drosophila RNAi Screening Center | 2013

Assay: 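Genes needed for store-operated calcium entry in fly cells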 (primary screen)
Cells: Drosophila S2R+ cells
Knock-down reagent: long dsRNA against Drosophila genes
Challenge: thapsigargin (2 µM) in calcium-free buffer to empty internal stores, then 2 mM calcium added back
Measured: 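Stores emptied by 2 µM thapsigargin without calcium, then 2 mM calcium re-added; fluo-4 fluorescence followed by FLIPR in 384-well plates, per-well averaged endpoint, raw; two screen passes, some wells retested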
Direction: calcium signal and retest calcium signal: higher = more calcium entry after store depletion
Hit rule: 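Knock-downs counted as hits when calcium entry dropped relative to STIM1 positive and Rho1 negative controls present on each plate; roughly 1500 genes called, with reductions of differing size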
Meaning of the calls: active = called as lowering calcium entry; inactive = not called
The screen tested about 20,000 reagents; this is an unselected part of those that have a named target and a result. Of all reagents, about 2,100 (10%) got an active call. 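Raw plate signals without normalisation; calls rest on control-based scores that were not deposited; replicate 2 separates called from uncalled poorly.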 Entries without a mark were called inactive. A plus sign joins genes that one reagent is predicted to hit. The record does not give: the amount of reagent, the time to read-out.

The opening 3 records, ahead of the listing:
target gene | amplicon | calcium signal, replicate 1 | calcium signal, replicate 2 | retest calcium signal, replicate 1 | retest calcium signal, replicate 2
fd3F + CR42499 | DRSC18160 | 110 | 85.3 | – | –
fd3F + CR42499 | DRSC18161 | 111 | 82.5 | – | –
CG7183 (GeneID 42181) | DRSC16210 | 176 | 265 | – | –

Results, from the first entry:
target gene | amplicon | calcium signal, replicate 1 | calcium signal, replicate 2 | retest calcium signal, replicate 1 | retest calcium signal, replicate 2
fd3F + CR42499 | DRSC18160 | 110 | 85.3 | – | –
fd3F + CR42499 | DRSC18161 | 111 | 82.5 | – | –
CG7183 (GeneID 42181) | DRSC16210 | 176 | 265 | – | –
CG4281 (GeneID 31171) | DRSC18521 | 104 | 180 | – | –
CG15263 (GeneID 34898) | DRSC01974 | 95.6 | 126 | 74.1 | 84.3
TBPH (GeneID 37781) | DRSC04660 | 108 | 97.2 | – | –
Osi21 (GeneID 34566) | DRSC02408 | 175 | 169 | – | –
Cyp4ac1 (GeneID 33754) | DRSC03302 | 109 | 195 | 115 | 108
CG7900 (GeneID 40957) | DRSC16336 | 107 | 172 | 5265 | 136
CG7900 (GeneID 40957) | DRSC21343 | 170 | 101 | – | –
Mtch (GeneID 38026) | DRSC08679 | 133 | 143 | – | –
wrapper (GeneID 37555) | DRSC04723 | 193 | 146 | – | –
CG1344 (GeneID 35500) | DRSC04837 | 117 | 107 | – | –
CG11370 (GeneID 40486) | DRSC11653 | 87.8 | 119 | – | –
Ssrp (GeneID 37767) | DRSC04658 | 68.8 (active) | 84 | – | –
hth (GeneID 41273) | DRSC16967 | 141 | 89.6 | – | –
Ir52a (GeneID 36715) | DRSC06262 | 108 | 146 | – | –
CG33673 (GeneID 3772423) | DRSC00084 | 66.5 | 155 | – | –
Gr98d (GeneID 43309) | DRSC14571 | 102 | 94.1 | – | –
pim (GeneID 34404) | DRSC03591 | 72.4 | 86.5 | – | –
CG7110 (GeneID 34757) | DRSC03011 | 79.4 | 121 | – | –
CG7110 (GeneID 34757) | DRSC03012 | 125 | 87.2 | – | –
CG15891 + CG15892 | DRSC18095 | 133 | 109 | – | –
CG15891 + CG15892 | DRSC18096 | 152 | 134 | – | –
mahj (GeneID 37462) | DRSC04053 | 179 | 79.6 | – | –
Cyp6a2 (GeneID 35587) | DRSC05014 | 116 | 161 | – | –
CG13135 (GeneID 34345) | DRSC02232 | 99.6 | 98 | – | –
CG11269 (GeneID 37527) | DRSC04094 | 70 | 226 | – | –
gom (GeneID 43934) | DRSC04690 | 61.6 | 192 | – | –
CG11034 (GeneID 33810) | DRSC02121 | 135 | 141 | – | –
CG11034 (GeneID 33810) | DRSC02122 | 172 | 101 | – | –
CG34283 (GeneID 5740817) | DRSC13313 | 93.7 | 105 | – | –
CG32485 (GeneID 38363) | DRSC22666 | 117 | 120 | – | –
Socs36E (GeneID 35085) | DRSC02455 | 78.7 | 124 | 79.5 | 89.1
